Measurements from the supplement of paper PMC11006884.
The targets with a hit were mostly taken out for another list; the other results follow. The data scatter; read single values as rough. This is a selection; strong and weak results do not stand in their true shares.

Chains of the proteins cited; added tags and fusions are not shown. Lines headed by an entry give the natural chain unless they say otherwise; changes in a name come on top.
UniProt Q7Z5K2: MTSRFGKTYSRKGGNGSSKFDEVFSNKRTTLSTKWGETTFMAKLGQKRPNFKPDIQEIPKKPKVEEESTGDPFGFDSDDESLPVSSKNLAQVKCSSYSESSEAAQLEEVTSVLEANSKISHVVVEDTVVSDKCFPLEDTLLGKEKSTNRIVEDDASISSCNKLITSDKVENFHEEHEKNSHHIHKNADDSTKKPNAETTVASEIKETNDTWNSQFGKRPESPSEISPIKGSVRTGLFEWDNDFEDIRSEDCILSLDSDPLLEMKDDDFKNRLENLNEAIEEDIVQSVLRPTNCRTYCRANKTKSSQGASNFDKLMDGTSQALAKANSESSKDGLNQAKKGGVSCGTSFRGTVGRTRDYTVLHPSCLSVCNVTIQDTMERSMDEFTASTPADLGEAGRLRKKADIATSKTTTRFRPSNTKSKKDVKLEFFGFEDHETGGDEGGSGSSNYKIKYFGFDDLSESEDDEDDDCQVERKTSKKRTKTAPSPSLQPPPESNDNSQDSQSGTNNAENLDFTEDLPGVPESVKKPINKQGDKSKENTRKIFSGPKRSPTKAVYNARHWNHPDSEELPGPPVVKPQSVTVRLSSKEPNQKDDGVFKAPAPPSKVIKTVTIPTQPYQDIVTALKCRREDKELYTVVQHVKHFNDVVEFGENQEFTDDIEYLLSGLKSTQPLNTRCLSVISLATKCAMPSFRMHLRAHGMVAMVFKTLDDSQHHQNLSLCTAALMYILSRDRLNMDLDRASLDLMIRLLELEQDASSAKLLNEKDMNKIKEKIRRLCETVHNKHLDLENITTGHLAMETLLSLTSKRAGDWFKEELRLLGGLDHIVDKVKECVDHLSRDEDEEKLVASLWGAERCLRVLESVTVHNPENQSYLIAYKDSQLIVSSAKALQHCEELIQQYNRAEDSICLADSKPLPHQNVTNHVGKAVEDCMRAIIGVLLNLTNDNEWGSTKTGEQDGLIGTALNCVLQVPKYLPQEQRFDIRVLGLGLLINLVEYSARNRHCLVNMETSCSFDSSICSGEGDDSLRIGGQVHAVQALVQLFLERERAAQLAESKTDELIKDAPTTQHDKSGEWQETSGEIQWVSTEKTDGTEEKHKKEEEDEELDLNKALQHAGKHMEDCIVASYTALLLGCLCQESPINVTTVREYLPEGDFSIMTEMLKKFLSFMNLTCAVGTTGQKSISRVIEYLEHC
UniProt Q8IY18: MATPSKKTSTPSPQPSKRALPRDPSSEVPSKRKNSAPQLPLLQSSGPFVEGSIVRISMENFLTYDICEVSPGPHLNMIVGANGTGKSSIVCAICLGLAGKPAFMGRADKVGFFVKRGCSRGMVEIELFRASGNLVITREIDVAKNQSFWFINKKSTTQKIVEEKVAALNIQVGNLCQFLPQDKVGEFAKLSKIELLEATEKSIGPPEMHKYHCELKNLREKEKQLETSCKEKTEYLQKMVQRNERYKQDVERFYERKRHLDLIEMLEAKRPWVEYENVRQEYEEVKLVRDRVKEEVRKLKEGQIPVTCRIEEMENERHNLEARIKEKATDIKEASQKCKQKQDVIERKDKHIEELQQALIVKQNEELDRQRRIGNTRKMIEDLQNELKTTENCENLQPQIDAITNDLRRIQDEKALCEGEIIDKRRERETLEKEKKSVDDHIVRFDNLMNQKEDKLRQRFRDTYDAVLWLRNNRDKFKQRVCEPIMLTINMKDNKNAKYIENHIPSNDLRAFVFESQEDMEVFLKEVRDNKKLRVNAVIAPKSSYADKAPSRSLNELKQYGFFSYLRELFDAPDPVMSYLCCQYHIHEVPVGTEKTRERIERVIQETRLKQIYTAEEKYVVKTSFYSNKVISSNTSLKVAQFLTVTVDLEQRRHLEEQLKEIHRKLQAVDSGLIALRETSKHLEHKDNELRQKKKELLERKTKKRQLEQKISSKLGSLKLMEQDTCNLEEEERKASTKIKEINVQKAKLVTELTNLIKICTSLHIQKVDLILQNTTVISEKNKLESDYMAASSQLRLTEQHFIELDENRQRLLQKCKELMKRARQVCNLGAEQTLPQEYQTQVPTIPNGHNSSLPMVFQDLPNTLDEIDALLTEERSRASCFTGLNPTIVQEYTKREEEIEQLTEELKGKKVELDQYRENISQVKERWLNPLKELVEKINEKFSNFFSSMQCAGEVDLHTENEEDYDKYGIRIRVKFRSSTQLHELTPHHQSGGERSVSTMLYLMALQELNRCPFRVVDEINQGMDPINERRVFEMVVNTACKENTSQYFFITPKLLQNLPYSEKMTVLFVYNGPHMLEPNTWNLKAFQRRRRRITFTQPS
UniProt Q8IXK0: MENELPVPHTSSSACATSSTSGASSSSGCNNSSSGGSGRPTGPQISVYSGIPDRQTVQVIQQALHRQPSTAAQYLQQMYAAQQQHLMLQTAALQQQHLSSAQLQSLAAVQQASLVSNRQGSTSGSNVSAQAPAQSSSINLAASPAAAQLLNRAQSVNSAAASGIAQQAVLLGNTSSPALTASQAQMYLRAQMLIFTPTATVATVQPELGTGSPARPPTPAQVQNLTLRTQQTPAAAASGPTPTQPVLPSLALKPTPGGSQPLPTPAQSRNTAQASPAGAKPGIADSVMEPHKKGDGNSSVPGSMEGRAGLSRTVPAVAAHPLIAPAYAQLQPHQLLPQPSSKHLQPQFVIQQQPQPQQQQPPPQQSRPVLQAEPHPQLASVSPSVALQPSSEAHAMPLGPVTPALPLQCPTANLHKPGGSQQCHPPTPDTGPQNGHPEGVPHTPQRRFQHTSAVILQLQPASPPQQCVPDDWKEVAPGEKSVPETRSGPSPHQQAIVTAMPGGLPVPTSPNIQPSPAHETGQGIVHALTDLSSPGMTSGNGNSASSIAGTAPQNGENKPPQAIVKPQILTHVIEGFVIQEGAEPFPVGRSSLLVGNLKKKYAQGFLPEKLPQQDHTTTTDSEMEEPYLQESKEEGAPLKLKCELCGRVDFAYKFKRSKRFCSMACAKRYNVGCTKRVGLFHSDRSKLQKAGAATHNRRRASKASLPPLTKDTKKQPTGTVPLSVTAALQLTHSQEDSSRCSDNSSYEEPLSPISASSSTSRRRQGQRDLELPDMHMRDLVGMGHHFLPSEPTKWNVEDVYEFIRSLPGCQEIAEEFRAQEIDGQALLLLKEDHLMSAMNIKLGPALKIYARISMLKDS
UniProt Q8IX01: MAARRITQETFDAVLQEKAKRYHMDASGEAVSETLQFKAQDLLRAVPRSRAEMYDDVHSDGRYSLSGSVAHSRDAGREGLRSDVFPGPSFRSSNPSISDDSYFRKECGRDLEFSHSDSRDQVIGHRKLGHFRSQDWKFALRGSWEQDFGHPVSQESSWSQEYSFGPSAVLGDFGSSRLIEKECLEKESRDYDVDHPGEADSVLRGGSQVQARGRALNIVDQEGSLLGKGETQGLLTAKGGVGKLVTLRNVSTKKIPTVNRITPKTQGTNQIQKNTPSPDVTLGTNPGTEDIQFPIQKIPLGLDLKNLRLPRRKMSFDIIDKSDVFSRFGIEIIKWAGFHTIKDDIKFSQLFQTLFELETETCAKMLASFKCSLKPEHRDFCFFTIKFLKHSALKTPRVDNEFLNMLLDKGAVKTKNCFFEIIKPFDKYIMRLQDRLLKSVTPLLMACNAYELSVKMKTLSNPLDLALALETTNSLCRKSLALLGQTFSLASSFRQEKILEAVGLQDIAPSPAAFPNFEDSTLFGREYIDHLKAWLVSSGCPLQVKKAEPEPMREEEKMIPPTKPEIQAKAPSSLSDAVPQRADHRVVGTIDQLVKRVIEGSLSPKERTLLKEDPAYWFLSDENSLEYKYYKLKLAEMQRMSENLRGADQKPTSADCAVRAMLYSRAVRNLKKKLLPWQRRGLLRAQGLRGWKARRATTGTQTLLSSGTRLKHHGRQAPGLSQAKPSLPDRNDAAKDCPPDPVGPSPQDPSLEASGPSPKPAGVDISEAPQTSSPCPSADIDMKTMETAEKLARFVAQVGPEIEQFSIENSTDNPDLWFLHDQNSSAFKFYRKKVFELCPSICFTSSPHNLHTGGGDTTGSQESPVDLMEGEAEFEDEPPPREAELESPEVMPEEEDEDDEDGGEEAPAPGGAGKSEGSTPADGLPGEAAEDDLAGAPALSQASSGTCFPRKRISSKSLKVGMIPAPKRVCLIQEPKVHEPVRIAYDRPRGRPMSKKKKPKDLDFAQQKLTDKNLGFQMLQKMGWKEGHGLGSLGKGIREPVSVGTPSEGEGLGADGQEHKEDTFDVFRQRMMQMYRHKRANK
UniProt Q8IZ69: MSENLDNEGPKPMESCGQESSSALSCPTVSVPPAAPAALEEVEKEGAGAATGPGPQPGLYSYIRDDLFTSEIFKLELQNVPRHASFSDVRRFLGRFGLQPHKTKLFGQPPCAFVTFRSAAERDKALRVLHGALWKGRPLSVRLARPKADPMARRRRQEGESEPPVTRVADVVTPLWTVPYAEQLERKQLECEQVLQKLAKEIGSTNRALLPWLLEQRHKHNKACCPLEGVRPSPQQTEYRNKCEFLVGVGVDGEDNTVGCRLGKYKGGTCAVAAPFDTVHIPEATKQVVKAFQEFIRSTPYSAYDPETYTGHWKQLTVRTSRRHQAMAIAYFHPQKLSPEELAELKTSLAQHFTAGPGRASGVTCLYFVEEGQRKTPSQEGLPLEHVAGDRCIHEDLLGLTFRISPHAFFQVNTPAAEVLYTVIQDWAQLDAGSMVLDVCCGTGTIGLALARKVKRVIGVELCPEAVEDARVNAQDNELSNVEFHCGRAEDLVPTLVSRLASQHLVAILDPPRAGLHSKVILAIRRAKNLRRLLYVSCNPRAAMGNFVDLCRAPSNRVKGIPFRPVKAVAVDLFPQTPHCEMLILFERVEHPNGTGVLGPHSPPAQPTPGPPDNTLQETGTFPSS
UniProt Q71F23: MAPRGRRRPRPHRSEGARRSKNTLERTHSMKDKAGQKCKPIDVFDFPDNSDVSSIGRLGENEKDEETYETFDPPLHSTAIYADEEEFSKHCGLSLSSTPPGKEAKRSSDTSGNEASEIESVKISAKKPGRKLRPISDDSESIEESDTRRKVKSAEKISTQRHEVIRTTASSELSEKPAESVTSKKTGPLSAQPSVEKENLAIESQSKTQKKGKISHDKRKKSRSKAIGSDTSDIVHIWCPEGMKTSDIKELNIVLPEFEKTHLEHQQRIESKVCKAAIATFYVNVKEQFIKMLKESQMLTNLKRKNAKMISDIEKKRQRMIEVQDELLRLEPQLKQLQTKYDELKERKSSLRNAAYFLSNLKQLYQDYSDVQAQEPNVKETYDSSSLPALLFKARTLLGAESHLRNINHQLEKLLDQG
UniProt Q7Z5L9: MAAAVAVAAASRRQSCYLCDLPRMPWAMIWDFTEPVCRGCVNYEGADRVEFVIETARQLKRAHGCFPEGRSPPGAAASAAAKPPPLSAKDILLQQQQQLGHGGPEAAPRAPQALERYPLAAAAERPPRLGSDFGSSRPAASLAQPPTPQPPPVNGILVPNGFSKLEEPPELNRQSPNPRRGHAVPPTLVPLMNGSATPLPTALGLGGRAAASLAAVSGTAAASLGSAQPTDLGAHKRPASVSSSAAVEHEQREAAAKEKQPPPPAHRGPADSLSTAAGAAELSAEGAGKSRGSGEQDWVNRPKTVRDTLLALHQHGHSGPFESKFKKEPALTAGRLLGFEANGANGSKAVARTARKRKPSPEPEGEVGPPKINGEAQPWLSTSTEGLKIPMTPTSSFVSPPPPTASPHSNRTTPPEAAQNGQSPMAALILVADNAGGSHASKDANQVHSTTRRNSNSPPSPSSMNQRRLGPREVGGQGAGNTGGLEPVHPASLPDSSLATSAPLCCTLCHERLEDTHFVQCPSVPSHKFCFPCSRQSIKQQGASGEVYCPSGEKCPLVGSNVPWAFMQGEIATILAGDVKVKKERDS
UniProt Q7Z2T5: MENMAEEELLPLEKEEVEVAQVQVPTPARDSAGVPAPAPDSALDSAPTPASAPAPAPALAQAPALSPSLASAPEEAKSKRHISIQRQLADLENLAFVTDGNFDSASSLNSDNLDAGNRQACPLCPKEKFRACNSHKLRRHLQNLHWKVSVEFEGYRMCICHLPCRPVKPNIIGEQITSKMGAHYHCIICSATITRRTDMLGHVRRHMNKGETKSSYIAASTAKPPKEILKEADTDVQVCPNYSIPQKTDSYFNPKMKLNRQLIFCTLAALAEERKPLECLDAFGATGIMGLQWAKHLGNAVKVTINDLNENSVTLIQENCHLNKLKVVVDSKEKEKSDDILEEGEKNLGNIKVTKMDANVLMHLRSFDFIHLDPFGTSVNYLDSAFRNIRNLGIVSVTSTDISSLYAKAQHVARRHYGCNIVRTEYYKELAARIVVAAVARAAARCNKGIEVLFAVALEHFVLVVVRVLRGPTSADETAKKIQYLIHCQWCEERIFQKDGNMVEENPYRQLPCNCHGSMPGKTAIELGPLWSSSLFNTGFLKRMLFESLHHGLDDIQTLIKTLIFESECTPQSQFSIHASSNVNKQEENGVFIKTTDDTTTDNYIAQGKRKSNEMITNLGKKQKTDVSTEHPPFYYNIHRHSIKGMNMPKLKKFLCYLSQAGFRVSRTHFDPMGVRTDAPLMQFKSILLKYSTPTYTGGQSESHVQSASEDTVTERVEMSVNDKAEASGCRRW

compound: COC(=O)/C=C/c1ccccc1 [methyl cinnamate]; assay: log2 ratio of iodoacetamide-alkyne labeling of the cysteine site, DMSO over compound (competition); higher = stronger covalent engagement of the cysteine by the compound, active = 1 or more; settings: 500 µM; treatment time 1 h; system: HEK293T cell lysate
How it was run: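 For each cysteine, the log2 competition ratio is mean control-channel reporter intensity over mean compound-channel reporter intensity. HEK293T lysate (2 mg/mL) was exposed to vehicle or electrophile (500 µM, 1 h, ambient temperature), labelled with iodoacetamide alkyne (1 h), clicked to sCIP-TMT reagents, digested overnight with trypsin at 37 °C, streptavidin-enriched and analysed by Orbitrap Eclipse LC-MS/MS with FAIMS and FragPipe. Cysteines quantified in only one of three replicates, each with duplicate channels, were excluded.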

Target | log2 ratio of iodoacetamide-alkyne labeling
UniProt Q7Z5K2_C344 | inactive: 0.395
SMC5 C726 (UniProt Q8IY18) | inactive: 0.146
PHC2 C740 (UniProt Q8IXK0) | inactive: 0.279
SLX4 C1269 (UniProt Q8IY92) | inactive: 0.464
SETX C2451 (UniProt Q7Z333) | inactive: 0.236
USP48 C986 (UniProt Q86UV5) | inactive: -0.103
UniProt Q8IX01_C183 | inactive: 0.352
SLFN11 C842 (UniProt Q7Z7L1) | inactive: 0.286
UniProt Q7Z5K2_C94 | inactive: -0.0812
USP48 C80 (UniProt Q86UV5) | inactive: -0.0926
UniProt Q7RTV0_C61 | inactive: 0.272
NCAPG2 C537 (UniProt Q86XI2) | inactive: 0.11
UniProt Q8IXM2_C66 | inactive: 0.471
WDFY1 C287 (UniProt Q8IWB7) | inactive: 0.216
TRMT2A C191 (UniProt Q8IZ69) | inactive: 0.0973
UniProt Q8IVS2_C62 | inactive: 0.172
ATG9A C764 (UniProt Q7Z3C6) | inactive: 0.298
UniProt Q71F23_C38 | inactive: 0.0968
UniProt Q7RTV0_C46 | inactive: 0.104

Two neighbouring entries out of the list so far:
Target | log2 ratio of iodoacetamide-alkyne labeling
ATG9A C764 (UniProt Q7Z3C6) | inactive: 0.298
UniProt Q71F23_C38 | inactive: 0.0968

Carrying on.

Target | log2 ratio of iodoacetamide-alkyne labeling
IRF2BP2 C505 (UniProt Q7Z5L9) | inactive: -0.0444
SLFN11 C884 (UniProt Q7Z7L1) | inactive: -0.251
UniProt Q7Z2T5_C265 | inactive: 0.168
TRMT2A C463 (UniProt Q8IZ69) | inactive: 0.259
UniProt Q7Z2Z2_C670 | inactive: -0.113
HUWE1 C612 (UniProt Q7Z6Z7) | inactive: 0.0935
UniProt Q86Y56_C409 | inactive: 0.0712
ZFYVE16 C292 (UniProt Q7Z3T8) | inactive: -0.0612
SRRM1 C33 (UniProt Q8IYB3) | inactive: 0.367
SND1 C31 (UniProt Q7KZF4) | inactive: 0.0503
CEP97 C396 (UniProt Q8IW35) | inactive: -0.142
NT5DC3 C276 (UniProt Q86UY8) | inactive: 0.0748
SETX C997 (UniProt Q7Z333) | inactive: 0.115
CAND1 C92 (UniProt Q86VP6) | inactive: -0.222
MED13L C1204 (UniProt Q71F56) | inactive: 0.368
UniProt Q7Z2Z2_C646 | inactive: -0.0778
UniProt Q86UW7_C639 | inactive: 0.0758
TRMT2A C111 (UniProt Q8IZ69) | inactive: 0.00178
